According to patent publication US20090162358A1:
Where a chain is given by its changes, count along the chain named. Results are given in words; binding and its absence hold for the method and conditions named. Some results given as binding are weak or reduced against the parent protein; the word gives no strength.

The chains behind the UniProt entries cited, without tags or fusion partners. Residues count along the entry.
human β-amyloid (Aβ), length not specified (P05067, residues 672-713): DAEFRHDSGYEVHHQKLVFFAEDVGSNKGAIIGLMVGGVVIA
N-terminal biotinylated β-amyloid(1-40) peptide (P05067, residues 672-711): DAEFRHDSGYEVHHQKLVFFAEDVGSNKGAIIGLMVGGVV
UniProt P12023, residues 672-713: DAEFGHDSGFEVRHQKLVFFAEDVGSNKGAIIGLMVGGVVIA
UniProt Q60495, residues 672-713: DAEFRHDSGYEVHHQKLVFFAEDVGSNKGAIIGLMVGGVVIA

B1: 2C1 mouse monoclonal antibody (antibody, V domains shown)
VH: EVQLQQSGAELVKPGASVKLSCTGSGFNIKVYYVHWLKQLTEQGLEWIGRIDPENGETIYAPKFQDKATLTVDTSSNTAYLQLSSLTSEDTAVYYCVSSGYWGQGTTLTVSS
VL: DIVMTQSAFSNPVTLGTSASISCRSSKSLLHRNGITYLYWYLQKPGQSPQLLIYQMSNLASGVPDRFTSSGSGTDFTLKISRVEAEDVGVYYCAQNLELWTFGGGTKLEIK
B2: 6F6 murine monoclonal antibody (antibody, mouse IgG2a, V domains shown)
VH: B1 VH with K13E, A61T, T91A
VL: B1 VL with S48P
B3: chimeric 6F6 antibody (6F6c) (antibody, human IgG1, V domains shown)
VH: B1 VH with K13E, A61T, T91A, T107L, L108V
VL: B1 VL with S48P
B4: 5C9 mouse monoclonal antibody (antibody, V domains shown)
VH: EVQLQQSGAEFVRPGASVKLSCTASGFNIKTYYIHWLKQRTDQGLEWIGRIDPEDGETKFGPKFRGKATLTADTSSNTASLQLSSLTSEDTGVYYCVTSGYWGQGTTLSVSS
VL: B1 VL with S7A, R32S, T68S, K79R
B5: 4D4 mouse monoclonal antibody (antibody, V domains shown)
VH: B1 VH with K13E, I59L, A61T, D66G, S84N, T107S
VL: B1 VL
B6: 5D1 mouse monoclonal antibody (antibody, V domains shown)
VH: B1 VH with I59K, Q82H
VL: B1 VL
B7: 14B3 mouse monoclonal antibody (antibody, V domains shown)
VH: B1 VH with K13E, I59L, A61T, D66G, L70F
VL: B1 VL
B8: 2E11 mouse monoclonal antibody (antibody, V domains shown)
VH: B1 VH with L11V, G24A, V34I, I59K, A61V, D66G, Q82H, A92G, S98T
VL: B1 VL with S7A, T14A, R32S, T68S, K79R
B9: 16D4 mouse monoclonal antibody (antibody, V domains shown)
VH: B1 VH with G24A, V31D, V34M, I59Q, D66G, T69S, V72A, Q82H
VL: B1 VL with S7A, R32S, T68S, K79R

Tests used:
[1] = molecular target: C-terminal biotinylated β-amyloid(1-40) peptide (UniProt P05067); experiment: FMAT bead immunoassay, culture supernatant
[2] = molecular target: N-terminal biotinylated β-amyloid(1-40) peptide (UniProt P05067); experiment: FMAT bead immunoassay, culture supernatant
[3] = molecular target: amyloid beta deposited in the retina of cfh-/- mice (mouse) (UniProt P12023); experiment: IHC, retina sections
[4] = molecular target: human β-amyloid (Aβ), length not specified (human) (UniProt P05067); experiment: IHC, eye tissue of a human donor
[5] = molecular target: amyloid beta deposited in the retina of cfh-/- mice (mouse) (UniProt P12023); experiment: IHC, retina of six month old cfh-/- mice
[6] = molecular target: guinea pig β-amyloid (in vivo, plasma) (guinea pig) (UniProt Q60495); experiment: ELISA of antibody-β-amyloid complexes in guinea pig plasma after i.v. 6F6
[7] = molecular target: human β-amyloid (Aβ), length not specified (human) (UniProt P05067); experiment: protein A immunoprecipitation from TASTPM mouse plasma, Western blot with 6E10
[8] = molecular target: amyloid beta deposited in the retina of cfh-/- mice (mouse) (UniProt P12023); experiment: IHC, retina sections, 6F6 at 1 in 4000
[9] = molecular target: human β-amyloid (Aβ), length not specified (human) (UniProt P05067); experiment: MSD ECL sandwich immunoassay, 6F6 as capture antibody, biotinylated 4G8 as detection antibody
[10] = molecular target: human β-amyloid (Aβ), length not specified (human) (UniProt P05067); experiment: ELISA and SPR (Biacore)

| Binder | binding [1] | binding [2] | further results |
| --- | --- | --- | --- |
| B1 | binds | binds | – |
| B2 | binds | binds | binding [3]: binds; binding [4]: binds; binding [5]: binds; binding [6]: binds; binding [7]: binds; binding [8]: binds; binding [9]: binds |
| B3 | – | – | binding [10]: binds |
| B4 | binds | binds | – |
| B5 | binds | binds | – |
| B6 | binds | binds | – |
| B7 | binds | binds | – |
| B8 | binds | binds | – |
| B9 | binds | binds | – |
